Results deposited as PubChem BioAssay AID1224828 (NIAID, 2016)
Shown is an unselected part of about 17,000 reagents. 762 of all reagents (4.5%) were called active. 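Active calls include both raised and lowered p65 entry, mostly lowered; wells with fewer than 50 cells lack a z-score.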 Raw values are not corrected between plates. No sequences are given here.

Screen: 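Regulators linking TLR4 signalling to p65 nuclear translocation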 (primary screen)
Cell system: mouse RAW264.7 G9 macrophage reporter cells (GFP-p65, Tnf promoter-mCherry)
Knock-down reagent: siRNA pool against mouse genes, 100 nM
Time to read-out: 2 days siRNA transfection, then 40 min LPS before fixation
Conditions: LPS (Salmonella minnesota R595) at 10 ng/ml
Measurement: 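Imaged p65 nuclear translocation ratio, normalised to the plate median, converted to robust z-scores and averaged across two replicates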
Reading the numbers: p65 translocation robust z-score: higher = more nuclear NF-kappaB p65 after LPS than the plate median; nuclear/cytoplasmic p65 ratio: higher = more nuclear NF-kappaB p65
Call rule: 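Called active when z exceeds 3.3 or falls under -1.56 (median of Tlr4 controls), giving activity score of at least 50; no calls for control wells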
Calls: active = hit (p65 shift raised or lowered); inactive = no clear change

Target gene | PubChem SID | p65 translocation robust z-score | nuclear/cytoplasmic p65 ratio, rep 1 | nuclear/cytoplasmic p65 ratio, rep 2 | low cell count flag | activity call
Cops7a (GeneID 26894) | SID315470464 | 1.44 | 1.78 | 2.03 | enough cells to score | inactive
Dgki (GeneID 320127) | SID315481232 | -2.19 | 1.34 | 1.11 | enough cells to score | active
Krt16 (GeneID 16666) | SID315467687 | -1.38 | 1.29 | 1.14 | enough cells to score | inactive
Tm7sf2 (GeneID 73166) | SID315474682 | 0.24 | 1.58 | 1.53 | enough cells to score | inactive
Hcrt (GeneID 15171) | SID315467164 | 1.04 | 1.58 | 1.5 | enough cells to score | inactive
Depdc5 (GeneID 277854) | SID315481000 | 0.83 | 1.66 | 1.7 | enough cells to score | inactive
Ttll8 (GeneID 239591) | SID315479450 | – | 1.83 | 1.69 | fewer than 50 cells per well; well left out of scoring | inactive
Rtl3 (GeneID 213436) | SID315477802 | – | 1.48 | 1.66 | fewer than 50 cells per well; well left out of scoring | inactive
Gpld1 (GeneID 14756) | SID315466993 | -1.1 | 1.59 | 1.28 | enough cells to score | inactive
Cpeb2 (GeneID 231207) | SID315478873 | 0.5 | 1.67 | 1.84 | enough cells to score | inactive
Serpinb1a (GeneID 66222) | SID315472298 | -0.09 | 1.49 | 1.59 | enough cells to score | inactive
Otof (GeneID 83762) | SID315475862 | – | 1.49 | 1.34 | fewer than 50 cells per well; well left out of scoring | inactive
Lrrc4 (GeneID 192198) | SID315477403 | -1.29 | 1.61 | 1.28 | enough cells to score | inactive
Fabp7 (GeneID 12140) | SID315465640 | 1.61 | 1.65 | 1.6 | enough cells to score | inactive
Sumf1 (GeneID 58911) | SID315471931 | -0.46 | 1.51 | 1.65 | enough cells to score | inactive
Usp44 (GeneID 327799) | SID315481449 | -0.76 | 1.36 | 1.33 | enough cells to score | inactive
Cd34 (GeneID 12490) | SID315465849 | 0.32 | 1.51 | 1.42 | enough cells to score | inactive
Fkbp2 (GeneID 14227) | SID315466699 | 0.22 | 1.49 | 1.37 | enough cells to score | inactive
Fzd6 (GeneID 14368) | SID315466777 | 0.29 | 1.54 | 1.63 | enough cells to score | inactive
Cfap52 (GeneID 71860) | SID315474353 | – | 1.4 | 1.12 | fewer than 50 cells per well; well left out of scoring | inactive
Gpr20 (GeneID 239530) | SID315479446 | -0.08 | 1.49 | 1.58 | enough cells to score | inactive
Tor1a (GeneID 30931) | SID315470766 | -0.74 | 1.43 | 1.23 | enough cells to score | inactive
Olfr908 (GeneID 258872) | SID315480504 | -0.89 | 1.46 | 1.14 | enough cells to score | inactive
Sgcd (GeneID 24052) | SID315470298 | -0.68 | 1.52 | 1.39 | enough cells to score | inactive
Lpar6 (GeneID 67168) | SID315472879 | – | 1.63 | 1.44 | fewer than 50 cells per well; well left out of scoring | inactive
Tmem255a (GeneID 245386) | SID315479812 | 1.94 | 1.92 | 1.76 | enough cells to score | inactive
Nfyb (GeneID 18045) | SID315468166 | -0.8 | 1.35 | 1.3 | enough cells to score | inactive
Kcng4 (GeneID 66733) | SID315472613 | -0.67 | 1.49 | 1.31 | enough cells to score | inactive
Ankfn1 (GeneID 382543) | SID315477876 | – | 0.97 | 1.21 | fewer than 50 cells per well; well left out of scoring | inactive
Endov (GeneID 338371) | SID315481680 | -0.19 | 1.43 | 1.42 | enough cells to score | inactive
Cdc27 (GeneID 217232) | SID315478096 | – | 1.4 | 1.73 | fewer than 50 cells per well; well left out of scoring | inactive
Chrm3 (GeneID 12671) | SID315465966 | 0.31 | 1.52 | 1.66 | enough cells to score | inactive
Nfkbib (GeneID 18036) | SID315468159 | 0.05 | 1.45 | 1.42 | enough cells to score | inactive
Dhrs7b (GeneID 216820) | SID315478033 | 1.02 | 1.65 | 2.02 | enough cells to score | inactive
Acer1 (GeneID 171168) | SID315477268 | -0.44 | 1.52 | 1.46 | enough cells to score | inactive
Extl3 (GeneID 54616) | SID315471269 | -0.44 | 1.44 | 1.28 | enough cells to score | inactive
Kif27 (GeneID 75050) | SID315475071 | 1.37 | 1.42 | 1.47 | enough cells to score | inactive
1600014C10Rik (GeneID 72244) | SID315474500 | 0.46 | 1.66 | 1.46 | enough cells to score | inactive
Vmn2r1 (GeneID 56544) | SID315471606 | 0.76 | 1.85 | 1.45 | enough cells to score | inactive
Mapk10 (GeneID 26414) | SID315470391 | 0.84 | 1.67 | 1.48 | enough cells to score | inactive
Mapk10 (GeneID 26414) | SID315481140 | 0.69 | 1.65 | 1.5 | enough cells to score | inactive
